Reference: US7638552B1 (Sciele Pharma, Inc., priority 2003, dated 2009)

Columns and labels:
[1] = human, in vivo
clinical = conditions: both, human, in vivo

With `C[N+]1(C)CCC(OC(=O)C(O)(c2ccccc2)C2CCCC2)C1.[Br-]` (stereo not drawn) [glycopyrrolate, 3-[(cyclopentylhydroxyphenylacetyl)oxy]-1,1-dimethylpyrrolidinium bromide] the “Cmax Group A fasted” value ([1]; both, po, 2 mg) was 0.1560 ng/mL, the “Tmax Group B fed” value ([1]; both, po, 2 mg) was 1.500 h and the “Ln AUC0-24 hrs LS Mean Group A fasted” value [1] was 0.417. The “Ln AUC0-24 hrs LS Mean Group B fed” value [1] was −0.9878, the “Ln AUC0-∞ LS Mean Group A fasted” value [1] was 0.4741 and the “Ln AUC0-∞ LS Mean Group B fed” value [1] was −0.7668. For the same compound, the “Ln Cmax LS Mean Group A fasted” value [1] was 1.267, the “Ln Cmax LS Mean Group B fed” value [1] was −2.604 and the AUC(0-t) (clinical; AUC0-24 hrs Group A fasted) was 1.74 ng·h/mL. For the same compound, the AUC(0-t) (clinical; AUC0-24 hrs Group B fed) was 0.383 ng·h/mL, the AUC(0-t) (clinical; AUC0-24 hrs LS Mean Group A fasted) was 1.84 ng·h/mL and the AUC(0-t) (clinical; AUC0-24 hrs LS Mean Group B fed) was 0.486 ng·h/mL. The AUC(0-inf) (clinical; AUC0-∞ Group A fasted) was 1.81 ng·h/mL, the AUC(0-inf) (clinical; AUC0-∞ Group B fed) was 0.459 ng·h/mL and the AUC(0-inf) (clinical; AUC0-∞ LS Mean Group A fasted) was 1.94 ng·h/mL. For the same compound, the AUC(0-inf) (clinical; AUC0-∞ LS Mean Group B fed) was 0.603 ng·h/mL, the Cmax (clinical; Cmax Group A fasted) was 0.318 ± 0.19 ng/mL and the Cmax (clinical; Cmax Group B fed) was 0.0838 ± 0.0813 ng/mL. The Cmax (clinical; Cmax LS Mean Group A fasted) was 0.337 ng/mL, the Cmax (clinical; Cmax LS Mean Group B fed) was 0.102 ng/mL and the Tmax (clinical; Tmax Group A fasted) was 3.1 h. For the same compound, the Tmax (clinical; Tmax Group B fed) was 2.6 h, the Tmax (clinical; Tmax LS Mean Group A fasted) was 3.15 h and the Tmax (clinical; Tmax LS Mean Group B fed) was 2.65 h.
